We go through 4 substances from paper PMC12176620, “Structure of the ATP-driven methyl-coenzyme M reductase activation complex” (Nature, 2025).

Results are given in words; binding and its absence hold for the method and conditions named. In cells and extracts the contact can be indirect. A yes stands for co-enrichment or nearness to the bait. Other partners may have been found.

The target of the test is T1, Twin-Strep McrC (Methanococcus maripaludis (endogenous in M. maripaludis JJ Δupt)) (UniProt Q6LWZ7).
T1 sequence: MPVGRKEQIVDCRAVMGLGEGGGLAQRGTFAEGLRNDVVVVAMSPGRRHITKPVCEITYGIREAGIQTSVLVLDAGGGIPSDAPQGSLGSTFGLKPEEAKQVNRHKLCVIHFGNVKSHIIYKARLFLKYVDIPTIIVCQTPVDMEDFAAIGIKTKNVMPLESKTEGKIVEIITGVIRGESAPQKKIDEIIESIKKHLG
Description: affinity purification with mass spectrometry; Twin-Strep McrC from M. maripaludis lysate on Strep-Tactin Sepharose gravity column, anaerobic, 20 mM HEPES, 150 mM NaCl, pH 7.6, eluted with 2.5 mM desthiobiotin; co-purified subunits seen on SDS gel and confirmed by mass spectrometry of gel bands.
Take McrG: the binding result is listed as “binds”.

As for methanogenic marker protein Mmp3, the binding result is reported as “binds”.

For methanogenic marker protein Mmp7, the binding result is listed as “binds”.

As to methanogenic marker protein Mmp17, the binding entry was “binds”.
